From the supplement of paper PMC10849652
Some of the results follow.

Amino acid sequences for entries named in this document (tags omitted). A change or cut given only in a name is not applied to a line headed by its entry.
UniProt Q8N2U9: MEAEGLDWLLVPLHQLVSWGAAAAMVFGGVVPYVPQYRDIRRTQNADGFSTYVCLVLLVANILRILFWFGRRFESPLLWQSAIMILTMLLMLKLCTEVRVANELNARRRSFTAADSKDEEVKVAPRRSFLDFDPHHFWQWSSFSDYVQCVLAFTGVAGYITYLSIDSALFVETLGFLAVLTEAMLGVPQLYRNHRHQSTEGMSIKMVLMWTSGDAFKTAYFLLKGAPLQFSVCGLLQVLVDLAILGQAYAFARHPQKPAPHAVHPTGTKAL
UniProt P84022, whole entry, looked up: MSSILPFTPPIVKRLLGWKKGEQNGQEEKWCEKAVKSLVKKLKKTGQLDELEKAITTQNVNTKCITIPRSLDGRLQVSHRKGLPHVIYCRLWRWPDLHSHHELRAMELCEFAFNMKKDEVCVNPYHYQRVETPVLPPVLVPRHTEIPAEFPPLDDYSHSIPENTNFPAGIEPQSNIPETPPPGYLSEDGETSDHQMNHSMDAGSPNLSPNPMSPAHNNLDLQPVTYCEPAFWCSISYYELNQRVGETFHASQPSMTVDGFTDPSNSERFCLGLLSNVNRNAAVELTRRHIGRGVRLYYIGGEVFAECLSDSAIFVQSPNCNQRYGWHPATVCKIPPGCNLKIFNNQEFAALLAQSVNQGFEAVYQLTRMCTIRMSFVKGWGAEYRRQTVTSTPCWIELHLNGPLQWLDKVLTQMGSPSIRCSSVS
UniProt P16260: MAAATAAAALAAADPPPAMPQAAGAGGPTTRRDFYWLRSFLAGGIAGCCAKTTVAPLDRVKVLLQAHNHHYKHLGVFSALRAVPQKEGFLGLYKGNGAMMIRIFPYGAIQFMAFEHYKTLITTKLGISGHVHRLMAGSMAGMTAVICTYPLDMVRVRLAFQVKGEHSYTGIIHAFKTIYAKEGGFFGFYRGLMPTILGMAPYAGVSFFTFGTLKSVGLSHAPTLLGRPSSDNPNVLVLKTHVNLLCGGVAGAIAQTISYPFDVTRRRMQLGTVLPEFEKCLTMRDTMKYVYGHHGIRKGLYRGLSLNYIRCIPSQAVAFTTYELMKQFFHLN
UniProt Q96BD0: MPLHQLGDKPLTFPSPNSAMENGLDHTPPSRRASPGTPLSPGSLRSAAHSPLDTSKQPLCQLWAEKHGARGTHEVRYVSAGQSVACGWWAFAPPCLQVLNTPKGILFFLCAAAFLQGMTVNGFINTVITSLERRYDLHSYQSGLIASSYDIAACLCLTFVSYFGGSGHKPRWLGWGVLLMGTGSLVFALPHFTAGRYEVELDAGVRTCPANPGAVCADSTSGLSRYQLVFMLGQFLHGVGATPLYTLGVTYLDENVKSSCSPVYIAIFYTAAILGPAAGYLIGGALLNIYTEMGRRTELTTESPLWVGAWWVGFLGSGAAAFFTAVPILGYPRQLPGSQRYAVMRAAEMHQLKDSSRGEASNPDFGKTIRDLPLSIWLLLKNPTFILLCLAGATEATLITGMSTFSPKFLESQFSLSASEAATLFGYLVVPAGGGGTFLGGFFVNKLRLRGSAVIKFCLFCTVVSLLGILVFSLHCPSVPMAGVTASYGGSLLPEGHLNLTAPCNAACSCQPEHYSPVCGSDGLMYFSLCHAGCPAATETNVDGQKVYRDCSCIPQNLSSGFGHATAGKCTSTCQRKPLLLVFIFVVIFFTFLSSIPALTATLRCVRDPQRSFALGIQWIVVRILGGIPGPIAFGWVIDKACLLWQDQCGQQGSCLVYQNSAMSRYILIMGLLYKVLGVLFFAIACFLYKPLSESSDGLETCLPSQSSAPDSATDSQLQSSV
UniProt P0C7P3: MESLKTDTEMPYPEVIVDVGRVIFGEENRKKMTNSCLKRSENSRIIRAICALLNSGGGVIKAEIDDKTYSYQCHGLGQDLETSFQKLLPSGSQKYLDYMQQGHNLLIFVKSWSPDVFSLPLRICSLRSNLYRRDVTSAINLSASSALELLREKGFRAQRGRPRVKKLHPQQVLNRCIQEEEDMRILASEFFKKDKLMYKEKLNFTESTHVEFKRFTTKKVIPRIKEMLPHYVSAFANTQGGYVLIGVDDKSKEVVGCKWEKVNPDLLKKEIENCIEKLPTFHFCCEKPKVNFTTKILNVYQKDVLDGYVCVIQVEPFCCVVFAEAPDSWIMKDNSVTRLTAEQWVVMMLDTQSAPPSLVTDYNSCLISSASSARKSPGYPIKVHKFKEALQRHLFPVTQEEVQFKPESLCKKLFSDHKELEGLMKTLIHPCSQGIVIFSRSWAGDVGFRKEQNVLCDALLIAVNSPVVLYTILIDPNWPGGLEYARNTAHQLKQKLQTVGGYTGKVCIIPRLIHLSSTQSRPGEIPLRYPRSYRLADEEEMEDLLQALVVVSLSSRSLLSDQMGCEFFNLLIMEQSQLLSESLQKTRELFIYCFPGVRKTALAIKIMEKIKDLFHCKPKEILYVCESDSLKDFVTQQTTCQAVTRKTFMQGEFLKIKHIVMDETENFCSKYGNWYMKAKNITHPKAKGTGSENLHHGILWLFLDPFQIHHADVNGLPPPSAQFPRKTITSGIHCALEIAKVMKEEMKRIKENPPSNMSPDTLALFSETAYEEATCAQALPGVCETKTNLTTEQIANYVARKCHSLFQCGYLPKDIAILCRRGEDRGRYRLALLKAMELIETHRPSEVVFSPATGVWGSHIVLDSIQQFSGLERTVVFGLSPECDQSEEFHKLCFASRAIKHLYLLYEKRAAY
UniProt Q9NY26: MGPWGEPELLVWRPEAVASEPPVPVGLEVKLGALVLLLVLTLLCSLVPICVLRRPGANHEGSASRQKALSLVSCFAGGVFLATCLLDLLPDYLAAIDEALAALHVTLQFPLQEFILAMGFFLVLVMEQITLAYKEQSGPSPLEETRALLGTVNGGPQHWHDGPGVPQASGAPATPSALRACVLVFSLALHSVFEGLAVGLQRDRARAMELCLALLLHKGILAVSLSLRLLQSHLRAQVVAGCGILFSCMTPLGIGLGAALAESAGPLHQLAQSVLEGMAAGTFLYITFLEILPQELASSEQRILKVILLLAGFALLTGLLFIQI
UniProt Q8NBI5: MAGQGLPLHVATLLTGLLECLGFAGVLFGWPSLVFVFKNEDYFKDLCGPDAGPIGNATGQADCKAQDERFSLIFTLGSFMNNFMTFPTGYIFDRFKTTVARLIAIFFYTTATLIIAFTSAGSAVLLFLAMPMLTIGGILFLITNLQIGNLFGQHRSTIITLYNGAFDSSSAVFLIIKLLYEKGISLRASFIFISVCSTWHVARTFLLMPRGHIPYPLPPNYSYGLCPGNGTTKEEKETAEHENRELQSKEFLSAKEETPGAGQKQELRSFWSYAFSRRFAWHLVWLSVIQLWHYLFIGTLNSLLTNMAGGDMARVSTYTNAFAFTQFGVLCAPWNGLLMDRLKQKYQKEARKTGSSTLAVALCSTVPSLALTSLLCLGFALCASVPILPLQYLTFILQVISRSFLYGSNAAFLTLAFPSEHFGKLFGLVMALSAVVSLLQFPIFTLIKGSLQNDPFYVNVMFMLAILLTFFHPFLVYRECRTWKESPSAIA
UniProt Q13433: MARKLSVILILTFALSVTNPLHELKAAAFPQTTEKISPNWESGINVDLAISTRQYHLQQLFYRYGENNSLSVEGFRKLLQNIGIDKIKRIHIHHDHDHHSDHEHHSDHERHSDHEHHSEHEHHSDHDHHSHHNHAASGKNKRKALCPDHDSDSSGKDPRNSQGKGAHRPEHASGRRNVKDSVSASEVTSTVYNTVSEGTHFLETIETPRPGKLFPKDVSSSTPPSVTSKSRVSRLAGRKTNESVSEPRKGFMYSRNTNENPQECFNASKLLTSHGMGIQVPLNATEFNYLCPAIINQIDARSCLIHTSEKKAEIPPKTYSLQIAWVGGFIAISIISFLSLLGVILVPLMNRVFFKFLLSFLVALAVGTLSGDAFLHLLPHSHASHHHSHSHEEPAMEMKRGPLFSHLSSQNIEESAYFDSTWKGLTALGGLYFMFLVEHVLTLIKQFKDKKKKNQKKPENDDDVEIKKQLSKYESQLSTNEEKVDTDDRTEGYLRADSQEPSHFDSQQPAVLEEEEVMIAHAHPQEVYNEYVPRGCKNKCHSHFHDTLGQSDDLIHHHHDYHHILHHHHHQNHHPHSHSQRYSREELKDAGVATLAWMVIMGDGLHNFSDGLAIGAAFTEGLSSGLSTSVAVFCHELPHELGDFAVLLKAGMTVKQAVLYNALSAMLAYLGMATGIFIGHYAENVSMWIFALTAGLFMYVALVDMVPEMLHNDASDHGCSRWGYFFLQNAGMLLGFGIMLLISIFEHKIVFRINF
UniProt Q3KQZ1: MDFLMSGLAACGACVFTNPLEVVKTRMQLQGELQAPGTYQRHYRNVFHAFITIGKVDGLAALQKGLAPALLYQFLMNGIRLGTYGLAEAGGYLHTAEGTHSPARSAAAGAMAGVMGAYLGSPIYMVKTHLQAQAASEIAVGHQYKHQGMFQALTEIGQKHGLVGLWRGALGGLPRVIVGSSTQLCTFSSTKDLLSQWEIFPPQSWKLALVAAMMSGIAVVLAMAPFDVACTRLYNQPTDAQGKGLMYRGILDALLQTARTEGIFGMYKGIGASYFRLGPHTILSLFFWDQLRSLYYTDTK
UniProt Q8IY92: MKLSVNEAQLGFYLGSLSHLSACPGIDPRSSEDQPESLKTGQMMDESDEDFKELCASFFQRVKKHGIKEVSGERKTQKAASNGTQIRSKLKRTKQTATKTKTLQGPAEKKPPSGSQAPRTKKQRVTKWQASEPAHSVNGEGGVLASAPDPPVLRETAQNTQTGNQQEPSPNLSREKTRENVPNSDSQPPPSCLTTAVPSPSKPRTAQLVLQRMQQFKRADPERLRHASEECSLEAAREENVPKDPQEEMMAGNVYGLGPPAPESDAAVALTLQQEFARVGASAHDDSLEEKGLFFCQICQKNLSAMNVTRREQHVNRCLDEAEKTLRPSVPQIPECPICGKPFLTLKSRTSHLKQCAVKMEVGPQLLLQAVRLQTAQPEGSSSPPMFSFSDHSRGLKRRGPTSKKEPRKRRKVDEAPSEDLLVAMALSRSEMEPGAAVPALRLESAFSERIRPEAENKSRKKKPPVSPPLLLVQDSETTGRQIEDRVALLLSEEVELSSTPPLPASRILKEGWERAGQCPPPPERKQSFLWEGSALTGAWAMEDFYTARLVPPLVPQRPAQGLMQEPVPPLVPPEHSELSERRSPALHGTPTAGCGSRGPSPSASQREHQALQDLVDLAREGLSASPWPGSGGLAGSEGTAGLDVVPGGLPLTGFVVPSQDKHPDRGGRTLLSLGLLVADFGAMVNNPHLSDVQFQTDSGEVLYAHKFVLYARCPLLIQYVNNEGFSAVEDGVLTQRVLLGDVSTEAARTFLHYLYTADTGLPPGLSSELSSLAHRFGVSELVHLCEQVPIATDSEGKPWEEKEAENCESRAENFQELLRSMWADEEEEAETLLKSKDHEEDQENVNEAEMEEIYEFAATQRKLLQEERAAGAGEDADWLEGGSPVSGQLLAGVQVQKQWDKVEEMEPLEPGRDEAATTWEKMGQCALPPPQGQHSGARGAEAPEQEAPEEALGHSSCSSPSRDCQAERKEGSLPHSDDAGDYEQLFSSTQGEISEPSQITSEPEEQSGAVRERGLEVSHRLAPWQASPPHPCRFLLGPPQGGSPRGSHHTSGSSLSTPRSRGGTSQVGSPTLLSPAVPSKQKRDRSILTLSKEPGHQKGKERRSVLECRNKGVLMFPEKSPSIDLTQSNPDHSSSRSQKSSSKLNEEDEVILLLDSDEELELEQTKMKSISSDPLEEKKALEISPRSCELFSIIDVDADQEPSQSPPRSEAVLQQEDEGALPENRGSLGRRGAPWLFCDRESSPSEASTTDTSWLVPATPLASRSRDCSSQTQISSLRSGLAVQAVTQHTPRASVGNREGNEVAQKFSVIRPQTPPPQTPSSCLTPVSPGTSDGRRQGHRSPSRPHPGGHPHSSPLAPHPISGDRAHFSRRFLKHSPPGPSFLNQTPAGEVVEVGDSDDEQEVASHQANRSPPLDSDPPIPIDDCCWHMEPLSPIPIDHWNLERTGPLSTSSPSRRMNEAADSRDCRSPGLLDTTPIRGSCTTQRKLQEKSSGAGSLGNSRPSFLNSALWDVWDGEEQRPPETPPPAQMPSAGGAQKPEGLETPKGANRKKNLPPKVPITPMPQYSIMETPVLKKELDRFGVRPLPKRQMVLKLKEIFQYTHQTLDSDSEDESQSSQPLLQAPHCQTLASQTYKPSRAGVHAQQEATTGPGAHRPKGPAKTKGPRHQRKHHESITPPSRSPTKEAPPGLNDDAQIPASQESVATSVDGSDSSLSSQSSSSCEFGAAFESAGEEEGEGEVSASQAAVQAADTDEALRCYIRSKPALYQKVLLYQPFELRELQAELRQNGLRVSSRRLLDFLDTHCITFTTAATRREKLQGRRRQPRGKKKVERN

Legend:
Assay in all cases: log2 fold change, soluble protein after heating vs DMSO (PISA); higher = thermal stabilisation; K562 lysate, 10 uM; active = over 0.2 and 3.5 SD of the protein, either way, in both replicates (recomputed)
Tubastatin A = compound: CN1CCc2c(c3ccccc3n2Cc2ccc(C(=O)NO)cc2)C1 [Tubastatin A]
Procedure, shortened: (§1)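 Log-two fold change in thermal stability relative to solvent controls is reported from duplicates. For each sample, crude K562 extract from dounce-homogenised pellets in PBS pH 7.4 with 1 mM MgCl2, at 1 mg/mL protein, was treated with 10 μM compound for 30 min. Aliquots heated for 3 min across 48°C-58°C were pooled, brought to 0.5% NP-40 at 4°C and cleared at 21,000xg for 90 min. The supernatant was quantified by TMTpro 16plex LC-MS/MS with channel sums equalised.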

[1] = compound: CNC(=O)C1=CC=CC=C1NC2=NC(=NC=C2Cl)NC3=C(C=C(C=C3)N4CCOCC4)OC
Procedure, shortened: as §1

[2] = compound: CNc1nc(-c2ccc3c(N)n[nH]c3c2)cc(N2C[C@@H](C(=O)NC3CCCCC3)CC[C@H]2C)n1
Procedure, shortened: as §1

encorafenib = compound: COC(=O)N[C@@H](C)CNc1nccc(-c2cn(C(C)C)nc2-c2cc(Cl)cc(NS(C)(=O)=O)c2F)n1 [encorafenib]
Procedure, shortened: as §1

[3] = compound: COC(=O)[C@H](CCSC)NC(=O)C1=C(C=C(C=C1)NC[C@H](CS)N)C2=CC=CC=C2
Procedure, shortened: as §1

alisertib = compound: COc1cc(Nc2ncc3c(n2)-c2ccc(Cl)cc2C(c2c(F)cccc2OC)=NC3)ccc1C(=O)O [alisertib]
Procedure, shortened: as §1

[4] = compound: COc1cc2nc(-c3cc(F)ccc3O)nc(N[C@@H]3CNC[C@H]3C(C)(C)O)c2cc1OC
Procedure, shortened: as §1

gefitinib = compound: COc1cc2ncnc(Nc3ccc(F)c(Cl)c3)c2cc1OCCCN1CCOCC1 [gefitinib]
Procedure, shortened: as §1

lapatinib = compound: CS(=O)(=O)CCNCc1ccc(-c2ccc3ncnc(Nc4ccc(OCc5cccc(F)c5)c(Cl)c4)c3c2)o1 [lapatinib]
Procedure, shortened: as §1

pictilisib = compound: CS(=O)(=O)N1CCN(Cc2cc3nc(-c4cccc5[nH]ncc45)nc(N4CCOCC4)c3s2)CC1 [pictilisib]
Procedure, shortened: as §1

duvelisib = compound: C[C@H](Nc1ncnc2nc[nH]c12)c1cc2cccc(Cl)c2c(=O)n1-c1ccccc1 [duvelisib]
Procedure, shortened: as §1

tozasertib = compound: Cc1cc(Nc2cc(N3CCN(C)CC3)nc(Sc3ccc(NC(=O)C4CC4)cc3)n2)n[nH]1 [tozasertib]
Procedure, shortened: as §1

bafetinib = compound: Cc1ccc(NC(=O)c2ccc(CN3CC[C@H](N(C)C)C3)c(C(F)(F)F)c2)cc1Nc1nccc(-c2cncnc2)n1 [bafetinib]
Procedure, shortened: as §1

crizotinib = compound: C[C@@H](Oc1cc(-c2cnn(C3CCNCC3)c2)cnc1N)c1c(Cl)ccc(F)c1Cl [crizotinib]
Procedure, shortened: as §1

doramapimod = compound: Cc1ccc(-n2nc(C(C)(C)C)cc2NC(=O)Nc2ccc(OCCN3CCOCC3)c3ccccc23)cc1 [doramapimod]
Procedure, shortened: as §1

alvocidib = compound: CN1CC[C@H](c2c(O)cc(O)c3c(=O)cc(-c4ccccc4Cl)oc23)[C@H](O)C1 [alvocidib]
Procedure, shortened: as §1

defactinib = compound: CNC(=O)c1ccc(Nc2ncc(C(F)(F)F)c(NCc3nccnc3N(C)S(C)(=O)=O)n2)cc1 [defactinib]
Procedure, shortened: as §1

[5] = compound: C[C@H](C1=CC=C(C=C1)C(=O)NC2=C3C=CNC3=NC=C2)N
Procedure, shortened: as §1

gandotinib = compound: Cc1cc(Nc2cc(CN3CCOCC3)c3nc(C)c(Cc4ccc(Cl)cc4F)n3n2)n[nH]1 [gandotinib]
Procedure, shortened: as §1

[6] = compound: Cc1cccc(CC(=O)N2CCc3c2ccc(-c2cn(C)c4ncnc(N)c24)c3F)n1
Procedure, shortened: as §1

Measured: log2 fold change

SLC66A2 (UniProt Q8N2U9)
inactive: Tubastatin A 0.036 | [1] -0.034 | [2] 0.162 | encorafenib 0.007 | [3] 0.205 | alisertib 0.164 | [4] 0.061 | gefitinib 0.187 | lapatinib -0.049 | pictilisib -0.064 | duvelisib 0.068 | tozasertib 0.038 | bafetinib 0.012

SMAD3 (UniProt P84022)
inactive: Tubastatin A -0.07 | [2] 0.053 | alisertib 0.025 | [4] 0.014 | gefitinib -0.006 | lapatinib 0.037 | crizotinib -0.075 | duvelisib -0.027 | doramapimod 0.024

SLC35A1 (UniProt P78382)
inactive: alvocidib -0.043 | [1] -0.23 | defactinib 0.031 | alisertib -0.018 | gefitinib -0.036 | pictilisib -0.087 | crizotinib -0.223 | [5] -0.088 | gandotinib 0.166 | doramapimod 0.189 | bafetinib -0.147 | [6] 0.142

SLC25A16 (UniProt P16260)
inactive: alvocidib -0.024 | [1] -0.016 | defactinib 0.027 | alisertib -0.064 | gefitinib 0.004 | crizotinib 0.014 | [5] 0.059 | gandotinib 0.016 | doramapimod -0.023 | [6] -0.033

SLCO4A1 (UniProt Q96BD0)
inactive: alvocidib -0.129 | alisertib -0.041 | gefitinib -0.001 | [5] 0.016 | gandotinib 0.062 | bafetinib -0.334 | [6] 0.012
active: pictilisib -0.687

SLC2A13 (UniProt Q96QE2)
inactive: alvocidib -0.033 | [1] -0.085 | [2] 0.047 | encorafenib 0.101 | [3] -0.12 | [5] -0.104 | duvelisib -0.022 | gandotinib -0.014 | tozasertib -0.016 | [6] 0.032

SLC26A11 (UniProt Q86WA9)
inactive: alvocidib -0.116 | [1] 0 | crizotinib 0.028 | [5] -0.083 | gandotinib -0.07 | doramapimod 0.171 | [6] 0.109

SLFN14 (UniProt P0C7P3)
inactive: alvocidib -0.073 | defactinib 0.13 | encorafenib 0.115 | [3] -0.03 | pictilisib 0.043 | crizotinib 0 | [5] -0.137 | gandotinib 0.264 | tozasertib -0.044 | doramapimod 0.067 | bafetinib 0.092 | [6] 0.237

SLC27A6 (UniProt Q9Y2P4)
inactive: [1] 0.085

Two records picked at random from those above, as already listed:
SLC25A16 (UniProt P16260)
inactive: alvocidib -0.024 | [1] -0.016 | defactinib 0.027 | alisertib -0.064 | gefitinib 0.004 | crizotinib 0.014 | [5] 0.059 | gandotinib 0.016 | doramapimod -0.023 | [6] -0.033

SLC26A11 (UniProt Q86WA9)
inactive: alvocidib -0.116 | [1] 0 | crizotinib 0.028 | [5] -0.083 | gandotinib -0.07 | doramapimod 0.171 | [6] 0.109

(list continues)

SLC39A1 (UniProt Q9NY26)
inactive: alvocidib -0.133 | Tubastatin A -0.003 | [1] 0.024 | [2] 0.228 | [4] 0.241 | lapatinib -0.061 | pictilisib 0.054 | crizotinib -0.061 | [5] -0.434 | duvelisib -0.013 | gandotinib 0.179 | doramapimod 0.102 | bafetinib -0.146 | [6] 0.337

SLC43A3 (UniProt Q8NBI5)
inactive: Tubastatin A 0.221 | [4] -0.027 | lapatinib 0.169 | pictilisib -0.337 | bafetinib -0.023

SLC39A6 (UniProt Q13433)
inactive: alvocidib 0.006 | Tubastatin A 0.083 | [1] -0.068 | alisertib 0.065 | [4] -0.002 | gefitinib -0.09 | lapatinib -0.006 | crizotinib 0.094 | [5] -0.007 | gandotinib -0.171 | doramapimod -0.057 | [6] -0.268

SLC25A35 (UniProt Q3KQZ1)
inactive: alvocidib 0.128 | encorafenib 0.01 | [3] -0.022 | crizotinib -0.009 | [5] -0.089 | gandotinib 0.051 | tozasertib 0.037 | doramapimod -0.102 | [6] 0.189

SLC41A1 (UniProt Q8IVJ1)
inactive: alvocidib -0.213 | Tubastatin A 0.055 | [1] 0.043 | encorafenib 0.071 | [3] -0.031 | alisertib 0.024 | [4] 0.014 | gefitinib 0.153 | lapatinib -0.059 | crizotinib 0.141 | [5] -0.09 | gandotinib 0.136 | tozasertib -0.016 | doramapimod 0.01 | [6] 0.113

SLC35C1 (UniProt Q96A29)
inactive: Tubastatin A -0.13 | [1] 0.142 | defactinib 0.061 | encorafenib 0.114 | [3] -0.055 | alisertib 0.093 | [4] 0.055 | gefitinib 0.157 | lapatinib -0.005 | pictilisib 0 | crizotinib -0.021 | tozasertib 0.034 | doramapimod -0.06 | bafetinib 0.061

SLX4 (UniProt Q8IY92)
inactive: [1] -0.081 | [2] 0.278 | duvelisib 0.155
